The test deals with Gal4 BD fusion with BspF (Brucella abortus) (UniProt Q2YLT8). The test is described as follows: two-hybrid.

Amino acid sequences for entries named in this document (tags omitted). A change or cut given only in a name is not applied to a line headed by its entry.
UniProt Q2YLT8: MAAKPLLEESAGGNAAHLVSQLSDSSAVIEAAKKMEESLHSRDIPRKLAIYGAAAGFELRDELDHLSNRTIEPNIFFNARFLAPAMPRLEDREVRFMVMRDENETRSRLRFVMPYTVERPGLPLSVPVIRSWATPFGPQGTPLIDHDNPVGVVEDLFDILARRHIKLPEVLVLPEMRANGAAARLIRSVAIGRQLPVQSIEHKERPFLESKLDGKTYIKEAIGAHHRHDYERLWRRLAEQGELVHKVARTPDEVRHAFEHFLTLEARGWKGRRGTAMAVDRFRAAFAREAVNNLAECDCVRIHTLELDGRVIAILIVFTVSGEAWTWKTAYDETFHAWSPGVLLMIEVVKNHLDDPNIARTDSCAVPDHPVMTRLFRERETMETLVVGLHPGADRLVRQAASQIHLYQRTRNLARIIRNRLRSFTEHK

No constants are given. Whether binding was seen depends on the method and setting. Binding calls can cover weak binding; strength is not graded here.

B1: ACAP1 C-terminal fragment (residues 460-740), two-hybrid library clone (domain or fragment, UniProt Q15027 460-740)
chain: LTLDSWEPELVKLMCELGNVIINQIYEARVEAMAVKKPGPSCSRQEKEAWIHAKYVEKKFLTKLPEIRGRRGGRGRPRGQPPVPPKPSIRPRPGSLRSKPEPPSEDLGSLHPGALLFRASGHPPSLPTMADALAHGADVNWVNGGQDNATPLIQATAANSLLACEFLLQNGANVNQADSAGRGPLHHATILGHTGLACLFLKRGADLGARDSEGRDPLTIAMETANADIVTLLRLAKMREAEAAQGQAGDETYLDIFRDFSLMASDDPEKLSRRSHDLHTL
Take B1: the binding entry is listed as “binds”.

The values above are taken from PMC8488576.
